# PubChem BioAssay AID1259308 – NCATS | 2017
# Test: 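Knock-downs that increase output of a recombinant reporter protein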 (primary screen)
# Cell system: human HEK293 embryonic kidney cells stably expressing firefly luciferase (HEK-CMV-Luc2-Hygro)
# Knock-down reagent: single siRNA against human genes, 0.8 pmol siRNA per well
# Timing: 72 h
# Detection: 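Luciferase light (ONE-Glo) measured on one replicate plate set and viability (CellTiter-Glo) on the other, scaled to a negative control siRNA, with robust z-scores and luciferase per cell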
# Scale: total luciferase, z-score and total luciferase, % of control: higher = more reporter protein produced; luciferase per cell, z-score: higher = more reporter output per viable cell; viable cells, % of control: higher = more viable cells
# Rule for the call: 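An siRNA counts as active if its total luciferase robust z-score exceeds 3; genes with two or more such siRNAs out of three were retested with fresh siRNAs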
# Meaning of the calls: active = raised luciferase; inactive = no rise
# This is an unselected part of about 59,000 reagents tested. Over the whole deposit, about 1,510 (2.6%) got an active call. 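Calls use total luciferase alone and ignore viability, so some active siRNAs may act by altering cell number.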 Entries without a mark were called inactive. The numbers tell different reagents against one gene apart.
gene knocked down,reagent,"total luciferase, z-score","total luciferase, % of control","luciferase per cell, z-score","viable cells, % of control"
GRK6 (G protein-coupled receptor kinase 6),1,1.16,105,0.559,101
GRK6 (G protein-coupled receptor kinase 6),2,0.161,85.1,-0.0371,96
GRK6 (G protein-coupled receptor kinase 6),3,5.67 (active),195,3.63,83.5
LRFN5,1,0.455,90.9,-0.0416,103
LRFN5,2,1.63,114,1.76,80.2
LRFN5,3,-0.571,70.5,-1.6,120
TUBB4A (tubulin beta 4A class IVa),1,-0.117,79.6,-0.155,92.6
TUBB4A (tubulin beta 4A class IVa),2,-0.281,76.3,-0.652,101
TUBB4A (tubulin beta 4A class IVa),3,-1.15,58.9,-1.08,87.5
RANBP17 (RAN binding protein 17),1,2.18,125,1.52,93.8
RANBP17 (RAN binding protein 17),2,-0.414,73.7,-0.663,98
RANBP17 (RAN binding protein 17),3,0.0305,82.5,0.152,88.6
FAM222B (family with sequence similarity 222 member B),1,-0.366,74.6,-0.321,90.7
FAM222B (family with sequence similarity 222 member B),2,-0.804,65.9,-0.658,87.6
FAM222B (family with sequence similarity 222 member B),3,-0.352,74.9,-0.578,97.5
MTMR10 (myotubularin related protein 10),1,0.37,89.2,0.298,92.2
MTMR10 (myotubularin related protein 10),2,0.927,100,0.182,107
MTMR10 (myotubularin related protein 10),3,-1.38,54.4,-1.9,100
MAN1A2 (mannosidase alpha class 1A member 2),1,-0.505,71.8,-0.664,95.6
MAN1A2 (mannosidase alpha class 1A member 2),2,-1.5,52,-1.57,87.9
MAN1A2 (mannosidase alpha class 1A member 2),3,0.0989,83.9,-0.139,97.2
ELAC1 (elaC ribonuclease Z 1),1,-1.59,50.3,-0.95,72.2
ELAC1 (elaC ribonuclease Z 1),2,3.1 (active),144,1.96,95.7
ELAC1 (elaC ribonuclease Z 1),3,0.737,96.5,0.807,87.2

Records above whose target name starts with M or m:
gene knocked down,reagent,"total luciferase, z-score","total luciferase, % of control","luciferase per cell, z-score","viable cells, % of control"
MTMR10 (myotubularin related protein 10),1,0.37,89.2,0.298,92.2
MTMR10 (myotubularin related protein 10),2,0.927,100,0.182,107
MTMR10 (myotubularin related protein 10),3,-1.38,54.4,-1.9,100
MAN1A2 (mannosidase alpha class 1A member 2),1,-0.505,71.8,-0.664,95.6
MAN1A2 (mannosidase alpha class 1A member 2),2,-1.5,52,-1.57,87.9
MAN1A2 (mannosidase alpha class 1A member 2),3,0.0989,83.9,-0.139,97.2

The results go on:
gene knocked down,reagent,"total luciferase, z-score","total luciferase, % of control","luciferase per cell, z-score","viable cells, % of control"
ACOT4 (acyl-CoA thioesterase 4),1,0.818,98.2,2.02,64.4
ACOT4 (acyl-CoA thioesterase 4),2,0.418,90.2,0.188,95.9
ACOT4 (acyl-CoA thioesterase 4),3,-0.684,68.3,-1.11,102
SEMA7A (semaphorin 7A (JohnMiltonHagen blood group)),1,1.47,111,1.64,80.7
SEMA7A (semaphorin 7A (JohnMiltonHagen blood group)),2,0.909,100,0.453,99.1
SEMA7A (semaphorin 7A (JohnMiltonHagen blood group)),3,0.755,96.9,0.55,93.7
MED24 (mediator complex subunit 24),1,-0.66,68.8,-0.921,97.9
MED24 (mediator complex subunit 24),2,-0.915,63.7,-0.953,91.5
MED24 (mediator complex subunit 24),3,-0.447,73,-0.244,87
GGA3,1,-0.726,67.5,-0.36,82.9
GGA3,2,-0.451,72.9,-0.535,93.8
GGA3,3,1.47,111,1.62,81
RBM28 (RNA binding motif protein 28),1,-0.32,75.5,-0.373,93.1
RBM28 (RNA binding motif protein 28),2,-1.09,60.3,-0.978,87.2
RBM28 (RNA binding motif protein 28),3,-1.06,60.8,-1.16,92.2
LILRB3 (leukocyte immunoglobulin like receptor B3),1,-0.621,69.5,0.466,68.7
LILRB3 (leukocyte immunoglobulin like receptor B3),2,0.35,88.8,-0.167,104
LILRB3 (leukocyte immunoglobulin like receptor B3),3,3.01 (active),142,2.45,83
PTPRF (protein tyrosine phosphatase receptor type F),1,-0.479,72.4,0.181,77.1
PTPRF (protein tyrosine phosphatase receptor type F),2,1.58,113,1.34,89
PTPRF (protein tyrosine phosphatase receptor type F),3,-0.0321,81.2,-0.616,107
SMC5 (structural maintenance of chromosomes 5),1,-0.0917,80.1,0.0152,89.1
SMC5 (structural maintenance of chromosomes 5),2,-0.0578,80.7,-0.354,99
SMC5 (structural maintenance of chromosomes 5),3,-0.514,71.7,-0.68,95.8
MUCL1 (mucin like 1),1,-0.592,70.1,0.095,76.4
MUCL1 (mucin like 1),2,-0.344,75.1,-0.00418,84
MUCL1 (mucin like 1),3,1.9,120,0.782,109
PHF2 (PHD finger protein 2),1,1.18,105,0.716,97.4
PHF2 (PHD finger protein 2),2,-0.556,70.8,0.844,63.4
PHF2 (PHD finger protein 2),3,0.15,84.9,0.585,81.3
ZNF217 (zinc finger protein 217),1,0.287,87.6,-0.131,101
ZNF217 (zinc finger protein 217),2,0.65,94.8,0.308,97.7
ZNF217 (zinc finger protein 217),3,0.66,95,0.337,97.1
